Results are given in words; binding and its absence hold for the method and conditions named. Some binding calls cover weakened binding; strength is not graded here.
Experiments:
[1] = molecular target: mitochondrial Hsp60 chaperonin complex (human (endogenous in 143B and HepG2)) (UniProt P10809); test: native gel or EMSA; BN-PAGE and Western blot of HepG2 cell mitochondria solubilised in 1% (w/v) digitonin, 0.2% (w/v) dodecyl maltoside or 1% (v/v) TX-100; anti-MCAD or anti-NDUFA9 antibodies
[2] = molecular target: mitochondrial Hsp60 chaperonin complex (human (endogenous in 143B and HepG2)) (UniProt P10809); test: native gel or EMSA; 35S-labelled in vitro translated protein incubated at 37 °C with freshly isolated 143B mitochondria (5 to 60 min), mitochondria solubilised in 1% (v/v) TX-100 or 1% (w/v) digitonin, BN-PAGE

By UniProt entry, the sequences of proteins in these tests, tags left out. Residues count along the entry.
UniProt P10809, residues 27-573: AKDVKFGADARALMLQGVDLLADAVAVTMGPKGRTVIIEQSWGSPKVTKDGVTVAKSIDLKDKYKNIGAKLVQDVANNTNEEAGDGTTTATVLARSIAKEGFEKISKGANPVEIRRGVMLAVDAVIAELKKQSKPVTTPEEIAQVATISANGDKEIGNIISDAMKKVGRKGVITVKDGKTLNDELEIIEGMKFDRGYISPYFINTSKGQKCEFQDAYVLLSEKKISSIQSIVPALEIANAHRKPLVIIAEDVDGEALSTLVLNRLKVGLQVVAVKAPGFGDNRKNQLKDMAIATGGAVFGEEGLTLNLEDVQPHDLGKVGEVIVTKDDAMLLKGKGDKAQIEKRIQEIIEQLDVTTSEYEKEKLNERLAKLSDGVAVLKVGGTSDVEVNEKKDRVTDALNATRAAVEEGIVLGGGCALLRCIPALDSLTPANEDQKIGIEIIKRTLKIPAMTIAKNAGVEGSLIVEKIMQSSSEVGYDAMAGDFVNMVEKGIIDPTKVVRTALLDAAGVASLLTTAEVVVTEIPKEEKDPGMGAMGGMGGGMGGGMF

B1: Medium-chain acyl-Coenzyme A dehydrogenase (enzyme, UniProt P11310 26-421, looked up)
chain: KANRQREPGLGFSFEFTEQQKEFQATARKFAREEIIPVAAEYDKTGEYPVPLIRRAWELGLMNTHIPENCGGLGLGTFDACLISEELAYGCTGVQTAIEGNSLGQMPIIIAGNDQQKKKYLGRMTEEPLMCAYCVTEPGAGSDVAGIKTKAEKKGDEYIINGQKMWITNGGKANWYFLLARSDPDPKAPANKAFTGFIVEADTPGIQIGRKELNMGQRCSDTRGIVFEDVKVPKENVLIGDGAGFKVAMGAFDKTRPVVAAGAVGLAQRALDEATKYALERKTFGKLLVEHQAISFMLAEMAMKVELARMSYQRAAWEVDSGRRNTYYASIAKAFAGDIANQLATDAVQILGGNGFNTEYPVEKLMRDAKIYQIYEGTSQIQRLIVAREHIDKYKN
modifications: [35S]-methionine/cysteine
notes: MCAD cDNA translated as the precursor; after import a proteinase K resistant mature form is seen; 421 amino acid precursor, mature 396 amino acids; Imported into mitochondria that hold endogenous MCAD, so the labelled ~175 kDa tetramer may be mixed with endogenous chains; also called MCAD; radiolabeled MCAD; source: in vitro translated (pGEM4Z, TnT Coupled Reticulocyte Lysate System), imported …
[1]
  binding: binds
[2]
  binding: binds

Source: article PMC5760697, “Loss of the Mitochondrial Fatty Acid β-Oxidation Protein Medium-Chain Acyl-Coenzyme A Dehydrogenase Disrupts Oxidative Phosphorylation Protein Complex Stability and Function” (Scientific Reports, 2018)
